Reference: PMC3857619

Sequences of proteins named here, by UniProt entry; tags and fusion partners are left off.
UniProt P26599: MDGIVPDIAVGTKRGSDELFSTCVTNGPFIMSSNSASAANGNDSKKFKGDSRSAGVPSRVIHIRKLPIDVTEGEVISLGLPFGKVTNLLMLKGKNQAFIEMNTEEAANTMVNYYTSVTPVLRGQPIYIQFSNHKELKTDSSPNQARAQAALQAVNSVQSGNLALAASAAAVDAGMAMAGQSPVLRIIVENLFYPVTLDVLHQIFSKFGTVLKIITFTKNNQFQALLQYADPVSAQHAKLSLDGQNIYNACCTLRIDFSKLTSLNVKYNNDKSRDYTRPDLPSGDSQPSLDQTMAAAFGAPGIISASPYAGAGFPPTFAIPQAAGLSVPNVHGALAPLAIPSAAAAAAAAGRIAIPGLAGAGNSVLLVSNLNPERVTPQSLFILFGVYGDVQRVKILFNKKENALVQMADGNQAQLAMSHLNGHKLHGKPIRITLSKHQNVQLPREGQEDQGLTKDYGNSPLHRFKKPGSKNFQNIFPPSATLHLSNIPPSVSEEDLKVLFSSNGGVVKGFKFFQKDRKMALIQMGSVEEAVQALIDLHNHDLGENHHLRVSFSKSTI

Molecular target: polypyrimidine tract-binding protein (human (endogenous in MCF7 and HeLa)) (UniProt P26599)
Assay: affinity purification with mass spectrometry; anti-PTB immunoprecipitation from nuclear and cytoplasmic lysates of MCF7 cells, mock or TRAIL for 3 h; SDS-PAGE, LC-MS/MS; three independent occasions

B1: DDX1 (protein, UniProt Q92499 1-740)
chain: MAAFSEMGVMPEIAQAVEEMDWLLPTDIQAESIPLILGGGDVLMAAETGSGKTGAFSIPVIQIVYETLKDQQEGKKGKTTIKTGASVLNKWQMNPYDRGSAFAIGSDGLCCQSREVKEWHGCRATKGLMKGKHYYEVSCHDQGLCRVGWSTMQASLDLGTDKFGFGFGGTGKKSHNKQFDNYGEEFTMHDTIGCYLDIDKGHVKFSKNGKDLGLAFEIPPHMKNQALFPACVLKNAELKFNFGEEEFKFPPKDGFVALSKAPDGYIVKSQHSGNAQVTQTKFLPNAPKALIVEPSRELAEQTLNNIKQFKKYIDNPKLRELLIIGGVAARDQLSVLENGVDIVVGTPGRLDDLVSTGKLNLSQVRFLVLDEADGLLSQGYSDFINRMHNQIPQVTSDGKRLQVIVCSATLHSFDVKKLSEKIMHFPTWVDLKGEDSVPDTVHHVVVPVNPKTDRLWERLGKSHIRTDDVHAKDNTRPGANSPEMWSEAIKILKGEYAVRAIKEHKMDQAIIFCRTKIDCDNLEQYFIQQGGGPDKKGHQFSCVCLHGDRKPHERKQNLERFKKGDVRFLICTDVAARGIDIHGVPYVINVTLPDEKQNYVHRIGRVGRAERMGLAISLVATEKEKVWYHVCSSRGKGCYNTRLKEDGGCTIWYNEMQLLSEIEEHLNCTISQVEPDIKVPVDEFDGKVTYGQKRAAGGGSYKGHVDILAPTVQELAALEKEAQTSFLHLGYLPNQLFRTF
For B1, the binding was “binds”.

No constants are given. Whether binding was seen depends on the method and setting. In cells and extracts the contact can be indirect. Here binding means that the protein was enriched with, or labelled near, the bait; the list need not be complete.
